Screen size: about 340,000 compounds; about 170 (0.05%) were called active. This list was built around the results that the source calls inconclusive (neither active nor inactive); the mix of calls is not that of the screen. Calls come from the whole dose curve; as a rule, active = well fitted inhibition curve with a large enough effect in the signal ratio, with a control signal flat (not every such curve was filed as active); inconclusive = small, poorly fitted or top-dose-only effect, or effect the other way, or a change in a side signal; inactive = flat fitted curve, though single readings scatter; the % refers to the signal ratio. A potency beside an inconclusive call is a rough fit, not a confirmed value.
Experiment: qHTS Assay to Find Inhibitors of Chronic Active B-Cell Receptor Signaling;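 for activity change, negative = inhibition: plate controls were basal doxycycline-induced cells for no effect and cells given 10 µM MG132 for full effect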
Settings: ABC-DLBCL IkBa-CBG/CBR reporter, luminescence ratio (green luciferase fused to IkBa over red control in TMD8 lymphoma cells), 4 h; activity change, negative = inhibition: at 46.1 µM (top of the series)
Summary of the method: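 Compounds up to 46 uM were incubated four hours with TMD8 cells whose green CBG68 luciferase is fused to IkappaBalpha; red CBR luminescence normalised the signal, and concentration-effect curves were fitted to fusion, red and ratio data.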
Potency is the fitted concentration of half-maximal effect.

Compound	activity change, negative = inhibition	Potency
NC(=O)c1oc2ccccc2c1NC(=O)C1CC(=O)N(c2ccccc2)C1 (stereo not given)	inconclusive: 20.4%	
O=C(Nc1ccccc1)c1cccc(N2C(=O)C3C4C=CC(C5CC45)C3C2=O)c1 (stereo not given)	inconclusive: -0.776%	
N#Cc1cccc(NC(=O)CCc2ccc(S(=O)(=O)N3CCOCC3)cc2)c1	inconclusive: -1.17%	
COc1ccc(C(=O)CSc2nnc(CNC(=O)c3ccccc3)n2C)cc1	inconclusive: 3.5%	
COc1cc(C2Nc3ccccc3C(=O)N2c2ccccc2OC)ccc1O (stereo not given)		inconclusive: 16.4 µM [falling, partial curve]
O=C(NNC(=O)c1cccc(S(=O)(=O)N2CCCCC2)c1)c1ccccc1	inactive: -1.2%	
CCOc1ccc(NC(=O)CN(C)C(=O)c2cccnc2Sc2ccccc2Cl)cc1OCC	inconclusive: -3.52%	
CCCC1(CCC)C(=O)NC(=NCCc2ccc(OC)c(OC)c2)NC1=O	inconclusive: 7.1%	
O=[N+]([O-])c1nn(-c2ccc3c(c2)OCCO3)n(O)c1=NC1CCCCC1	inconclusive: 17.8%	
Cc1ccc(CNC(=O)CCC2CCCN(Cc3cccc4cccnc34)C2)o1 (stereo not given)	inconclusive: -14.2%	
CCOC(=O)c1cnn(-c2ccccc2)c1-c1ccncc1	inconclusive: 5.61%	
CC1(c2ccccc2Br)NC(=O)N(CC(=O)Nc2ccc(S(N)(=O)=O)cc2)C1=O (stereo not given)	inactive: 12.1%	
OC(CNCc1ccccc1F)(c1ccc(F)cc1)c1ccc(F)cc1	inactive: -0.769%	
Cc1cc(C(=O)NCc2ccc(F)cc2)c2ccccc2n1	inconclusive: 1.55%	
C/C(=C\c1ccccc1)C(=O)NCCc1ccccc1		inconclusive: 14.1 µM [falling, single point]
CCCCC(=O)Nc1cccc(NC(=O)c2cccnc2Cl)c1	inconclusive: -1.19%	
O=C1C2CCCN2C(=S)N1C1CCCCC1 (stereo not given)	inconclusive: -5.55%	
O=C(Cn1c(NCCCO)nc2ccccc21)c1ccco1	inactive: 0.338%	
Cc1ccc(N2CC(C(=O)OCC(=O)Nc3ccccc3F)CC2=O)cc1 (stereo not given)	inconclusive: 4.33%	
Cc1cc(S(=O)(=O)NCC(C)C)ccc1OCC(=O)N1CCOCC1	inconclusive: 8.96%	
Cc1cccc(OCCCC(=O)NNC(=O)c2cccc(N(C)C)c2)c1	inconclusive: 2.37%	
CN(O)/C=C/C(=O)c1ccc(Br)cc1	inactive: 0.353%	
Cc1ccc(/C=N/Nc2cc(C)nc(NCc3ccccc3)n2)cc1	inconclusive: 5.67%	
CC(C)CCn1cnc2c([nH]c3cccc(Cl)c32)c1=O	inconclusive: 16.2%	
CCOC(=O)C1=C(c2ccccc2)NC(SCC(=O)Nc2cccc(C)c2)=C(C#N)C1c1ccco1 (stereo not given)	inconclusive: 13.8%	
COc1cc(/C=N/NC(=O)c2sc(N)c(C#N)c2C)cc(Br)c1O		inconclusive: 12.6 µM [falling, partial curve]
O=C(O)c1cccc(S(=O)(=O)N2CCCC(c3nc4c(nnn4Cc4ccccc4Cl)c(=O)[nH]3)C2)c1 (stereo not given)	inconclusive: 6.87%	
CCN(CC)S(=O)(=O)c1ccc(O)c(NC(=O)CN2CCc3ccccc3C2)c1	inactive: 1.62%	

As a working copy, 4 of the compounds above:
Compound	activity change, negative = inhibition	Potency
NC(=O)c1oc2ccccc2c1NC(=O)C1CC(=O)N(c2ccccc2)C1 (stereo not given)	inconclusive: 20.4%	
O=C(Nc1ccccc1)c1cccc(N2C(=O)C3C4C=CC(C5CC45)C3C2=O)c1 (stereo not given)	inconclusive: -0.776%	
N#Cc1cccc(NC(=O)CCc2ccc(S(=O)(=O)N3CCOCC3)cc2)c1	inconclusive: -1.17%	
COc1ccc(C(=O)CSc2nnc(CNC(=O)c3ccccc3)n2C)cc1	inconclusive: 3.5%	

Next entries follow:

Compound	activity change, negative = inhibition	Potency
COc1ccc(OC)c2sc(NNC(=O)C3COc4ccccc4O3)nc12 (stereo not given)	inactive: -0.0163%	
CCn1c(C)nc2cc(C(=O)NNC(=S)Nc3ccccc3OC)ccc21		inconclusive: 35.5 µM [falling, single point]
CCn1c(SCC(=O)N2CCOCC2)nc2sc3c(c2c1=O)CCCC3	inactive: -0.269%	
COCCn1c(SCC(=O)c2[nH]c(C)c(C(C)=O)c2C)nc2ccccc21	inconclusive: 3.08%	
c1ccc(CNCC2COc3ccccc3O2)cc1 (stereo not given)	inconclusive: 20.9%	
CNC(=O)c1c(Cl)cnn1-c1ccccc1	inconclusive: 22.6%	
O=C(Nc1ccc(F)cc1)c1nc(S(=O)(=O)Cc2ccccc2)ncc1Cl	inconclusive: 24.2%	
O=C(Nc1cc(-c2ccccc2)[nH]n1)c1ccccc1	inconclusive: 155%	
CC(NC(=O)c1ccc(F)cc1)C(c1cccs1)N1CCN(C)CC1 (stereo not given)	inconclusive: 2.74%	
Fc1cccc(CSc2nnc3c(n2)[nH]c2ccccc23)c1	inconclusive: 14.5%	
O=C(O)c1cc(S(=O)(=O)Nc2ccc3cn[nH]c3c2)ccc1Br	inconclusive: -0.695%	
Cc1ccc(C(=O)Nc2ccc(SC(F)F)cc2)s1		inconclusive: 22.4 µM [falling, single point]
CCOC(=O)N1CCC(NC(=O)CSCc2nc(-c3ccc(OCC)cc3)oc2C)CC1	inconclusive: -15.2%	
CCOc1ccc(-n2cccc2C=O)cc1		inconclusive: 7.31 µM [falling, partial curve, poor fit]
Cc1cccc(NC(=O)[C@H](NC(=O)[C@@H]2Cc3ccccc3CN2)c2ccccc2)c1	inconclusive: -13.2%	
CCCN1CNc2c(c(=O)[nH]c(=S)n2-c2ccccc2Cl)C1	inconclusive: 3.26%	
O=[N+]([O-])c1ccc(Cl)cc1N1CCCC1	inconclusive: 9.16%	
CCCc1cc(=O)[nH]c(SCc2ccccc2Cl)n1		inconclusive: 16.4 µM [falling, partial curve, poor fit]
c1ccc(C2=NNC(c3ccccn3)=NN2)nc1		inconclusive: 17.8 µM [falling, partial curve]
COc1cc(/C=N/NC(=O)c2cc3ccccc3[nH]2)ccc1O	inconclusive: -17.5%	
CN1C(=O)c2cccc3c(S(=O)(=O)Nc4ccc(O)c(C(=O)O)c4)ccc1c23	inactive: 1.48%	
CCc1cccc2c3c([nH]c12)C(CC)(CC(=O)O)OCC3 (stereo not given)	inconclusive: -14.8%	
COc1ccc(NC(=O)c2cnc(SCC(=O)Nc3nc4ccc(C)cc4s3)n(C)c2=O)cc1		inconclusive: 5.62 µM [falling, single point]
CCOC(=O)N1CCN(Cc2ccc3ccccc3c2)CC1	inactive: -2.32%	
CSc1nsc(SCC(=O)Nc2nncs2)n1		inconclusive: 35.5 µM [falling, single point]
O=C(NC1CCN(Cc2cccc([N+](=O)[O-])c2)CC1)c1ccccc1	inactive: 1.49%	
CC(C)C(=O)Nc1ccc2c(c1)oc1ccccc12		inconclusive: 18.4 µM [falling, single point]
